Measurements from US20110251144A1, “MOLECULAR MODULATORS OF THE WNT/BETA-CATENIN PATHWAY” (MASSACHUSETTS INSTITUTE OF TECHNOLOGY, priority 2008, published 2011).

Assays:
[1] = system: Axin2, Si/Gp100, Kit and other melanocytic genes; assay: Quantitative PCR of endogenous gene targets in B16 melanoma cells; format: cell-based, murine; conditions: in the presence of WNT3A conditioned media
Method: Cells were cultured for approximately 72 hours until they reached 80-90% confluency. RNA was purified using the RNeasy kit using the manufacturer's protocol (Qiagen; Maryland, MD). cDNA was synthesized using Superscript Reverse Transcriptase (Invitrogen; Grand Island, N.Y.). […] Quantitative PCR results presented in the manuscript are representative of experiments performed on a minimum of three biologic replicates.

[2] = system: Wnt/β-catenin signaling (beta-catenin activated reporter, BAR); assay: High throughput small molecule screen, beta-catenin activated reporter (BAR) in HT22 cells; format: cell-based, mouse; conditions: growth media and WNT3A stimulus
Method: Compounds were dissolved in dimethylsulphoxide (DMSO). For the primary screen, performed in duplicate, HT22 cells stably expressing the beta-catenin activated reporter (BAR) were cultured in growth medium (DMEM/10% FBS/1% antibiotic). 3000 cells per well were transferred to 384-well clear bottom plates (Nalgene Nunc; Rochester, N.Y.) in 30 μL of growth medium. The following day, […] of compound and 10 μL of either growth media or WNT3A conditioned media (E.C.50 dose) was transferred to the cells. The next day each well was imaged using transmitted light with the ImageXpress Micro (Molecular devices; Sunnyvale, Calif.) followed by the addition of 10 μL of Steady-Glo (Promega; Madison, Wis.) as per the manufacture's instructions, and luminescence measurement on an EnVision Multilabel plate reader (PerkinElmer; Waltham, Mass.). Viability was scored by analyzing the ImageXpress images. As described in detail in Seiler et al. (Seiler et al., Nucleic Acids Res. 36:D351 (2008), which is hereby incorporated by reference in its entirety), each compound well received an algebraically signed Z-score corresponding to the number of standard deviations it fell above or below the mean of a well-defined mock-treatment distribution of DMSO controls. […] The fold-increase over the background of DMSO controls for each treatment was also calculated. […]

## Nc1nc2ccc(OC(F)(F)F)cc2s1 [riluzole]
[1]
  Transcription of endogenous Axin2, Si/Gp100 and Kit: dose-dependent synergy
[2]
  Activation of Wnt/β-catenin-responsive luciferase reporter in the primary screen: activated Wnt/β-catenin signaling on their own as well as in synergy with WNT3A
